Consider three molecules from publication PMC5133968.

Chains of the proteins cited; added tags and fusions are not shown.
UniProt Q16513: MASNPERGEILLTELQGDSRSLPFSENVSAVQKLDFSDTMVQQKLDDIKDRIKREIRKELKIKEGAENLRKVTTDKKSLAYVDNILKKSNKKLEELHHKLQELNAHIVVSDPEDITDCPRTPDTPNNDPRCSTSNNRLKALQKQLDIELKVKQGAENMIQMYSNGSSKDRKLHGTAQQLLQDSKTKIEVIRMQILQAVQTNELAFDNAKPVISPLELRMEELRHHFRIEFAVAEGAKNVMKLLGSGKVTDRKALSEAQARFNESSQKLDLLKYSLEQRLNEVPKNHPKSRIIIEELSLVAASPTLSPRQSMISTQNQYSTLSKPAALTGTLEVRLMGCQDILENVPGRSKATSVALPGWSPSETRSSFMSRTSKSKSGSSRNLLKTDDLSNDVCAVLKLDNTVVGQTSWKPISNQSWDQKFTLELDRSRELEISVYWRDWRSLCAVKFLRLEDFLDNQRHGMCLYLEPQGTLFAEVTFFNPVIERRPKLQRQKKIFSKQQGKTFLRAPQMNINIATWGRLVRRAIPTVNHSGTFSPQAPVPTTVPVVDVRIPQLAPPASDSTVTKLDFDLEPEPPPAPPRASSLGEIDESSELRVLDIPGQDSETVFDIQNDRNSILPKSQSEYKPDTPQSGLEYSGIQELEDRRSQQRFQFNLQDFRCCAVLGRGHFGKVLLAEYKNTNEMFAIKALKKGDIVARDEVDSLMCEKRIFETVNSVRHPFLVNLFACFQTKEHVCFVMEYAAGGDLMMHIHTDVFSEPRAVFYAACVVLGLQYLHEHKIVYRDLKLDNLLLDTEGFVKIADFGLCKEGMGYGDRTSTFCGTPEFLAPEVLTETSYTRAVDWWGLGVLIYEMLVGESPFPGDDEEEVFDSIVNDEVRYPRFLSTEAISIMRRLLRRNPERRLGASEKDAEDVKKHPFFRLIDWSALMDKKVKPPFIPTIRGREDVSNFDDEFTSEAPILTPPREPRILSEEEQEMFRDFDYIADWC
UniProt Q8BWW9: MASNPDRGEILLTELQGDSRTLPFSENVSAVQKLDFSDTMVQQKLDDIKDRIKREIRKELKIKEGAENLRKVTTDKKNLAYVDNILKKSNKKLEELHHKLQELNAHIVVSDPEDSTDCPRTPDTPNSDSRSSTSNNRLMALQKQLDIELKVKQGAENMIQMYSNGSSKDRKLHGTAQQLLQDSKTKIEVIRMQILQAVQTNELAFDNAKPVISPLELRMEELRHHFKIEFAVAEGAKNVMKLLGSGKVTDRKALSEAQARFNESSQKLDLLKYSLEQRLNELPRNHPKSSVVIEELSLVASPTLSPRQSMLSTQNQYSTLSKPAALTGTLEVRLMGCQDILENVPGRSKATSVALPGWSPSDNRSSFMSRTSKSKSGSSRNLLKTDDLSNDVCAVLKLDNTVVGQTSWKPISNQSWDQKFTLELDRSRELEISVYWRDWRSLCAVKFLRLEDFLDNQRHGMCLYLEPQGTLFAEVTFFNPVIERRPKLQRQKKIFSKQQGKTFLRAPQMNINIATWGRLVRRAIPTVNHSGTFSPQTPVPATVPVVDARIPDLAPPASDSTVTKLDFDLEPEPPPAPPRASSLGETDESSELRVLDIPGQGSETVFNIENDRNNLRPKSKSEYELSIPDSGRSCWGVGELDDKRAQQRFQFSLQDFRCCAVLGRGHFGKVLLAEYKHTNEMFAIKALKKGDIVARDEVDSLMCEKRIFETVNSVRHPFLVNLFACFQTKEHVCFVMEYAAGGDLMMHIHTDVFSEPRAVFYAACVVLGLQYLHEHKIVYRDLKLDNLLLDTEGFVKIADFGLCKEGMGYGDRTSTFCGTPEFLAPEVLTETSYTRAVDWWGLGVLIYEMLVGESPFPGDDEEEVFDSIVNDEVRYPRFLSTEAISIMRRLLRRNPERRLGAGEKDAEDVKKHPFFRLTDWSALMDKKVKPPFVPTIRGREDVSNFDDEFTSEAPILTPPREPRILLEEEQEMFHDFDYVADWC

Like-named read-outs stand apart in the source and are kept apart here. Results are given in words; binding and its absence hold for the method and conditions named. Binding seen in cells or lysates may run through a third protein. Some binding calls cover weakened binding; strength is not graded here.

Test [1] concerns the target T1, Cdo, endogenous in C2C12 myoblasts (mouse (endogenous in C2C12)) (UniProt Q32MD9).
T1 sequence: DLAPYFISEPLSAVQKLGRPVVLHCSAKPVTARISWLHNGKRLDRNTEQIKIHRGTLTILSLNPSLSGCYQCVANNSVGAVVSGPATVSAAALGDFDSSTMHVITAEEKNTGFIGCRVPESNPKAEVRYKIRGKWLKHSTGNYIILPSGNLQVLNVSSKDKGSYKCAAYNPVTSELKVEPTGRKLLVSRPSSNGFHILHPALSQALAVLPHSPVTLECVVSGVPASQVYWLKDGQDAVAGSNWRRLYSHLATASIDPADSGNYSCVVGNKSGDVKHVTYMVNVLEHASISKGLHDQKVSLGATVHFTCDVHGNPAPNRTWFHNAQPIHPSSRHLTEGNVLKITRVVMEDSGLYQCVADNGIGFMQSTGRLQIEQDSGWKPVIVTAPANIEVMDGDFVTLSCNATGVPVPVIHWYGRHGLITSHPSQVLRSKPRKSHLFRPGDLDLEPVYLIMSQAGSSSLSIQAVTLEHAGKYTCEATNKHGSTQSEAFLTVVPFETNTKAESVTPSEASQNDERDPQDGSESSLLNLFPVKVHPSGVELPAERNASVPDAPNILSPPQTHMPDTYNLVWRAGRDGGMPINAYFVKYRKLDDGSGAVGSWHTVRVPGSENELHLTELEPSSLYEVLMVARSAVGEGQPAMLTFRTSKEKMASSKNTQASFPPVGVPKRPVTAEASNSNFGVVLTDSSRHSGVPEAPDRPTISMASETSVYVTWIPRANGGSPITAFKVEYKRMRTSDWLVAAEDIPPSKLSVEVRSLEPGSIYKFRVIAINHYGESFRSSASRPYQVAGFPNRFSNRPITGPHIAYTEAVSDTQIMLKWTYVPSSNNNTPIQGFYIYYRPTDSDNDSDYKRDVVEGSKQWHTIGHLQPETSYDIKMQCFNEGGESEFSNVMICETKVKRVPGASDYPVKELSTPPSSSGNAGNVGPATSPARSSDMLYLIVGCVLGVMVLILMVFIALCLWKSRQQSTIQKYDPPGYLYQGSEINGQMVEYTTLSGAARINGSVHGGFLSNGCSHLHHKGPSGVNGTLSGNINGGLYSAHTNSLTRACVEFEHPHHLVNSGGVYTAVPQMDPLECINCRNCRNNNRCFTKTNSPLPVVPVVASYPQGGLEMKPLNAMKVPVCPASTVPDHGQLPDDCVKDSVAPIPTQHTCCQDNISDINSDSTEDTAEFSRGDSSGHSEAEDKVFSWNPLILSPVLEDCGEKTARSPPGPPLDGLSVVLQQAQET
The test can be described thus: co-IP; endogenous proteins; lysates of C2C12 cells in growth medium (D0) or differentiation medium for the indicated times (D1, D2) immunoprecipitated with Cdo antibodies (Figures 2c, 5c).

Test [2] addresses T1, Cdo, endogenous in C2C12 myoblasts (mouse (endogenous in C2C12)). The description is as above. This is another data set of the same source.
For test [3], the target named is HA-PKN2 (human) (UniProt Q16513). In words: co-IP; 293T cells co-transfected; whole cell extracts incubated with anti-HA and protein G agarose overnight at 4 °C, washed three times; blotted for Cdo (Figure 2b) or PKN2 (Figure 4b).
The target in test [4] is PKN2 (protein kinase C-related kinase 2), expression vector with no tag named (human) (UniProt Q16513). In words: co-IP; 293T cells transiently co-transfected; lysates immunoprecipitated with PKN2 antibodies, blotted for Cdo (Figure 2e) or HA (Figure 5b).

With “PKN2, endogenous in C2C12 myoblasts (from UniProt Q8BWW9 1-983) (enzyme)”, the binding entry in test [1] is given as “binds”.

B1: APPL1, endogenous in C2C12 myoblasts (protein, UniProt Q8K3H0 1-707)
chain: MPGIDKLPIEETLEDSPQTRSLLGVFEEDATAISNYMNQLYQAMHRIYDAQNELSAATHLTSKLLKEYEKQRFPLGGDDEVMSSTLQQFSKVIDELSSCHAVLSTQLADAMMFPISQFKERDLKEILTLKEVFQIASNDHDAAINRYSRLSKKRENDKVKYEVTEDVYTSRKKQHQTMMHYFCALNTLQYKKKIALLEPLLGYMQAQISFFKMGSENLNGQLEEFLANIGTSVQNVRREMDGDVETMQQTIEDLEVASDPLYLPDPDPTKFPINRNLTRKAGYLNARNKTGLVSSTWDRQFYFTQGGNLMSQARGDVAGGLAMDIDNCSVMAVDCEDRRYCFQITSFDGKKSSILQAESKKDHEEWICTINNISKQIYLSENPEETAARVNQSALEAVTPSPSFQQRHESLRPGGQSRPPTARTSSSGSLGSESTNLAALSLDSLVAPDTPIQFDIISPVCEDQPGQAKAFGQGGRRTNPFGESGGSTKSETEDSILHQLFIVRFLGSMEVKSDDHPDVVYETMRQILAARAIHNIFRMTESHLLVTCDCLKLIDPQTQVTRLTFPLPCVVLYATHQENKRLFGFVLRTSGGRSESNLSSVCYIFESNNEGEKICDSVGLAKQIALHAELDRRASEKQKEIERVKEKQQKELSKQKQIEKDLEEQSRLIAASSRPNQAGSEGQLVLSSSQSEESDLGEEGKKRESEA
For B1, the binding result in test [2] is listed as “binds”.

B2: Cdo (cell adhesion molecule-related downregulated by oncogene), full length (receptor, UniProt O35158 25-1256)
chain: DLATYFISEPLSAVQKLGRPVVLHCSAKPVTARISWLHNGKRLDRNTEQIKIHRGTLTILSLNPSLSGCYQCVANNSVGAVVSGPATVSADALADFDSSTMHVITAEKKNTGFIGCRVPESNPKAEVRYKIRGKWLMYSTGNYIILPSGNLQILNVSSKDKGSYKCAAYNPVTSELKVEPAGRKLLVSRPSSDGFHILHPALSQALAVLPHSPVTLECVVSGVPASQVYWLKDGQDCLSGSNWRRLYSHLATASIDPADSGNYSCVVGNNSSGDVKHVTYTVNVLEHASISKGLHDQKVSLGATVRFTCEVHGNPAPNRTWFHNAQPIRPSSRHLTEGSVLKITGVIMEDSGLYQCMADNGIGFMQSTGRLQIEQDSGQRPVIVTAPANVEVTDGDFVTLSCNATGEPVPVIHWYGRHGLITSHPSQVLRSKSRKSHLFRPGDLDPEPVYLIMSQAGSSSLSIQAVTREHAGKYTCEAVNKHGSTQSEAFLTVVPFETNTKAEPVTPSEASQNDERDPRDGSESGLLNLFPVKVHSGGVELPAEKNASVPDAPNILSPPQTHMPDTYTLVWRTGRDGGMPINAYFVKYRKLDDGSGAVGSWHTVRVPGSESELHLTELEPSSLYEVLMVARSAVGEGQPAMLTFRTSKEKMASSKNTQASFPPVGIPKRPVTSEASNSNFGVVLTDSSRHSGVPEAPDRPTISMASETSVYVTWIPRANGGSPITAFKVEYKRMKSSDWLVAAEDIPPSKLSVEVRSLEPGSIYKFRVIVINHYGESFRSSASRPYQVAGFPNRFSNRPITGPHIAYTEAVSDTQIMLKWTYIPSSNNNTPIQGFYIYYRPTDSDNDSDYKRDVVEGSKQWHTIGHLQPETSYDIKMQCFNEGGESEFSNVMICETKVKRVPGASEYPMKELSTPPSSSGNGGNVGPATSPARSSDMLYLIVGCVLGVMVLILLVFIALCLWKSRQQSAIQKYDPPGYLYQGSEINGQMVEYTTLSGTARINGSVHGGFLSKGSLSNGCSHLHHKGPNGVNGILNGTINGGLYSAHTSSLTRTCVEFEHPHHLVNGGAVYTAVPQMDPLECINCRNCRNNNRCFTKTNSPLPVVPVVASYPQDGLEMKPLGVMKFPVCPVSTVPDGGQIPEECLKDSVAPAPTQRTCRQDNTSDINSDSTEDTAEFNRGDSSGHSEAEDKVFSWSPLILSPVLEDCSEKTAWSPPGPPLDGLSVVLQQAQET
B2: the binding result in test [3] and in test [4] was “binds” each time.
